The assay addresses ADAMTSL5. The experiment in a line: phage ELISA. (An ELISA detects its analyte on a solid surface through an enzyme-linked reagent.)

Results are given in words; binding and its absence hold for the method and conditions named. Binding can be weak; no strength is given.

B1: isecarosmab (1) VHH framework scaffold (parental) (VHH)
VHH: DVQLVESGGGVVQPGGSLRLSCAASGRTVSSYAMGWFRQAPGKEREFVAGISRSAERTYYVDSLKGRFTISRDNSKNTVYLQMNSLRPEDTALYYCAADLDPNRIFSREEYAYWGQGTLVTVSS
On to B1, for which the binding entry was “binds”.

The values above are taken from patent US20250179471A1.
